{"source": "PubChem BioAssay AID1159584 | Peter MacCallum Cancer Centre, 2016", "screen": "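Knock-downs that harm CDH1-null cells more than parental MCF10A cells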 (primary screen)", "cells": "human MCF10A breast epithelial cells, parental and CDH1-null", "knock-down reagent": "siRNA against human genes", "read-out": "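ATP luminescence (CellTiter-Glo) viability per line relative to mean mock wells over all plates, and the ratio of CDH1-null to parental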", "direction": "CDH1-null / parental viability ratio: higher = CDH1-null cells survive relatively better than parental; CDH1-null viability vs mock: higher = more viable CDH1-null cells", "units": "CDH1-null viability vs mock in fraction of mock", "note": "Here is a random part of about 18,000 reagents tested. Not all columns of the deposit are shown. Not stated in the record: the amount of reagent, the time to read-out."}
The first 2 entries, ahead of the listing:
{"target gene": "NRIP2 (GeneID 83714)", "CDH1-null / parental viability ratio": 0.76, "CDH1-null viability vs mock": 0.61}
{"target gene": "RHOC (GeneID 389)", "CDH1-null / parental viability ratio": 0.68, "CDH1-null viability vs mock": 0.64}

The list itself, from the first entry:
{"target gene": "NRIP2 (GeneID 83714)", "CDH1-null / parental viability ratio": 0.76, "CDH1-null viability vs mock": 0.61}
{"target gene": "RHOC (GeneID 389)", "CDH1-null / parental viability ratio": 0.68, "CDH1-null viability vs mock": 0.64}
{"target gene": "OR5T1 (GeneID 390155)", "CDH1-null / parental viability ratio": 1.05, "CDH1-null viability vs mock": 0.46}
{"target gene": "CD151 (GeneID 977)", "CDH1-null / parental viability ratio": 0.85, "CDH1-null viability vs mock": 0.8}
{"target gene": "CPTP (GeneID 80772)", "CDH1-null / parental viability ratio": 0.89, "CDH1-null viability vs mock": 0.68}
{"target gene": "DDX4 (GeneID 54514)", "CDH1-null / parental viability ratio": 1.26, "CDH1-null viability vs mock": 0.93}
{"target gene": "BBS12 (GeneID 166379)", "CDH1-null / parental viability ratio": 1.06, "CDH1-null viability vs mock": 1.02}
{"target gene": "BGN (GeneID 633)", "CDH1-null / parental viability ratio": 1.25, "CDH1-null viability vs mock": 0.86}
{"target gene": "NUP205 (GeneID 23165)", "CDH1-null / parental viability ratio": 1.29, "CDH1-null viability vs mock": 0.36}
{"target gene": "FOXJ1 (GeneID 2302)", "CDH1-null / parental viability ratio": 0.94, "CDH1-null viability vs mock": 0.84}
{"target gene": "EI24 (GeneID 9538)", "CDH1-null / parental viability ratio": 1.45, "CDH1-null viability vs mock": 0.84}
{"target gene": "FBXO9 (GeneID 26268)", "CDH1-null / parental viability ratio": 0.92, "CDH1-null viability vs mock": 0.37}
{"target gene": "UBAP2L (GeneID 9898)", "CDH1-null / parental viability ratio": 1.23, "CDH1-null viability vs mock": 0.64}
{"target gene": "NVL (GeneID 4931)", "CDH1-null / parental viability ratio": 0.81, "CDH1-null viability vs mock": 0.55}
{"target gene": "EFCAB11 (GeneID 90141)", "CDH1-null / parental viability ratio": 1.38, "CDH1-null viability vs mock": 0.76}
{"target gene": "NLRC5 (GeneID 84166)", "CDH1-null / parental viability ratio": 0.92, "CDH1-null viability vs mock": 0.57}
{"target gene": "HSPE1 (GeneID 3336)", "CDH1-null / parental viability ratio": 1.05, "CDH1-null viability vs mock": 0.92}
{"target gene": "CCDC106 (GeneID 29903)", "CDH1-null / parental viability ratio": 0.93, "CDH1-null viability vs mock": 0.93}
{"target gene": "KRTAP3-2 (GeneID 83897)", "CDH1-null / parental viability ratio": 1.11, "CDH1-null viability vs mock": 1.04}
{"target gene": "SCAMP2 (GeneID 10066)", "CDH1-null / parental viability ratio": 0.93, "CDH1-null viability vs mock": 1}
{"target gene": "CCNI (GeneID 10983)", "CDH1-null / parental viability ratio": 0.88, "CDH1-null viability vs mock": 0.89}
{"target gene": "CRTAC1 (GeneID 55118)", "CDH1-null / parental viability ratio": 1.32, "CDH1-null viability vs mock": 0.95}
{"target gene": "ZMYM6 (GeneID 9204)", "CDH1-null / parental viability ratio": 1.04, "CDH1-null viability vs mock": 0.7}
{"target gene": "TMBIM4 (GeneID 51643)", "CDH1-null / parental viability ratio": 0.77, "CDH1-null viability vs mock": 0.62}
{"target gene": "KRT25 (GeneID 147183)", "CDH1-null / parental viability ratio": 0.97, "CDH1-null viability vs mock": 0.84}
{"target gene": "ZMYND19 (GeneID 116225)", "CDH1-null / parental viability ratio": 1.12, "CDH1-null viability vs mock": 1.17}
{"target gene": "FAM181B (GeneID 220382)", "CDH1-null / parental viability ratio": 0.99, "CDH1-null viability vs mock": 0.85}
{"target gene": "TNFRSF10C (GeneID 8794)", "CDH1-null / parental viability ratio": 1.2, "CDH1-null viability vs mock": 1.02}
{"target gene": "CCDC85A (GeneID 114800)", "CDH1-null / parental viability ratio": 1.01, "CDH1-null viability vs mock": 1.06}
{"target gene": "SSTR3 (GeneID 6753)", "CDH1-null / parental viability ratio": 1.46, "CDH1-null viability vs mock": 0.98}
{"target gene": "DYNLT5 (GeneID 200132)", "CDH1-null / parental viability ratio": 1.28, "CDH1-null viability vs mock": 0.82}
{"target gene": "NELFE (GeneID 7936)", "CDH1-null / parental viability ratio": 0.83, "CDH1-null viability vs mock": 0.55}
{"target gene": "CDK14 (GeneID 5218)", "CDH1-null / parental viability ratio": 0.97, "CDH1-null viability vs mock": 0.89}
{"target gene": "FFAR3 (GeneID 2865)", "CDH1-null / parental viability ratio": 0.76, "CDH1-null viability vs mock": 0.79}
{"target gene": "KRT83 (GeneID 3889)", "CDH1-null / parental viability ratio": 1.03, "CDH1-null viability vs mock": 0.68}
